Measurements published in PubChem BioAssay AID2685 (National Center for Advancing Translational Sciences (NCATS), 2010).
This is one part of the list. Further columns of the screen follow, without active or inactive calls. Most of these compounds were active or inconclusive in the main read-out, so they are no random draw. Words in brackets tell the shape of the fitted curve; partial curves, single points and poor fits give uncertain potencies.

Experiment: qHTS Assay for Lipid Storage Modulators in Drosophila S3 Cells;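 on cell number change: cells counted by Cell Tracker Red CMTPX staining in the red channel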
Conditions: BODIPY lipid droplet fluorescence, 18-24 h; for cell number change: measured here: cell count max response, cells fed with added oleic acid
In short: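 Drosophila S3 cells loaded with oleic acid (400 uM, as added) and compounds at several concentrations; lipid droplets imaged by 488-nm laser-scanning cytometry, 500–530 nm intensity and object ratio to cell channel. Percent activity normalized to 20 uM Triacsin C.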

[1] = measured here: lipid fluorescence (Fed channel) AC50, cells fed with added oleic acid
[2] = measured here: cell number channel AC50, cells fed with added oleic acid

SMILES	cell number change	AC50 [1]	AC50 [2]
Cc1cccc(-n2ncc3c(N(C)C4CCCCC4)ncnc32)c1	0.794%	4.61 µM [rising, partial curve, poor fit]	–
CCOc1ccc(NC(=O)CCNC(=O)C2CCN(S(=O)(=O)c3ccccc3)CC2)cc1	-3.12%	–	0.164 µM [rising, single point]
COC1(OC)C(/C=C/c2ccc(Cl)cc2)C(C#N)(C#N)C1(OC)OC (stereo not drawn)	-58.2%	13 µM [falling, partial curve]	11.6 µM [falling, partial curve]
CN(C)S(=O)(=O)c1ccc(N2C(=O)CC2(/C=C/c2ccccc2)C(=O)NC2CCCC2)cc1 (stereo not drawn)	-14.8%	–	–
CC(=O)c1ccc(OCC(O)CN2CCN(Cc3ccccc3)CC2)cc1 (stereo not drawn)	–	6.51 µM [rising, partial curve, poor fit]	–
Cn1c(=O)c2c(SCc3cccnc3)nc(C3CC3)nc2n(C)c1=O	-24.3%	29.1 µM [falling, single point]	–
Cc1cc(C(=O)N/N=C/c2ccc([N+](=O)[O-])s2)n[nH]1	-25.8%	0.58 µM [falling, partial curve, poor fit]	–
O=C(NNC1=C(C(=O)C(F)(F)F)CCC1)c1ccccc1Cl	-64.7%	–	29.1 µM [falling, single point]
CCCN1CCc2c(sc3nc(SCC)n(-c4ccc(OC)cc4)c(=O)c23)C1	11.1%	–	–
O=C(O)c1cn(-c2ccccc2)c(=O)c2ccccc12	-9.72%	0.00517 µM [falling, full curve, poor fit]	–
COc1ccc(NC(=O)Cn2c(=O)cnc3ccccc32)cc1S(=O)(=O)N1CCCCC1	13%	8.2 µM [rising, partial curve]	–
O=C(Nc1ccccn1)c1ccc2c(c1)S(=O)(=O)c1ccccc1C2=O	5.45%	4.11 µM [rising, full curve]	–
C/C(CC1(O)C(=O)N(C)c2ccccc21)=N\O (stereo not drawn)	1.81%	0.231 µM [falling, full curve, poor fit]	–
O=C(O)CC(NS(=O)(=O)c1c(F)cc(F)cc1Br)c1ccccc1Cl (stereo not drawn)	-30.2%	18.4 µM [falling, partial curve, poor fit]	29.1 µM [falling, single point]
COc1cc2[nH]c(C(=O)NCCc3ccccc3)cc2c(OC)c1OC	–	18.4 µM [rising, single point]	0.00411 µM [rising, full curve, poor fit]
CC(C)c1ccc(N(C)C(=O)Cc2c(C(=O)O)n(C)c3ccccc23)cc1	-15.1%	0.58 µM [falling, single point]	–
CCCC(c1c(C)n(C)n(-c2ccccc2)c1=O)c1c(C)n(C)n(-c2ccccc2)c1=O	4.7%	18.4 µM [rising, single point]	–
CCOc1ccc(/C=N/NC(=O)c2cc(-c3ccccc3)nc3ccccc23)cc1O	-30.6%	–	0.00517 µM [falling, full curve, poor fit]

SMILES	cell number change	AC50 [1]	AC50 [2]
CCc1ccccc1N(CC(=O)NCC1CCCO1)C(=O)CCC(=O)Nc1cc(C)on1 (stereo not drawn)	–	5.8 µM [falling, partial curve]	–
Cc1ccc(S(=O)(=O)N(C(=O)c2ccncc2)c2ccc(OC(=O)c3ccncc3)cc2)c(C)c1	8.36%	0.184 µM [falling, partial curve]	–
CC(C)CC1C(C#N)=C(N)SC(N)=C1C#N	-3.36%	0.731 µM [rising, single point]	–
CC1CCCN(c2ccc(C(=O)NCC3CCCO3)cn2)C1 (stereo not drawn)	-7.19%	29.1 µM [rising, single point]	–
Cc1cc2c(NC(=O)Nc3ccc(C(C)(C)C)cc3)cccc2nn1	-24.6%	29.1 µM [falling, single point]	–
COc1ccc(C2C(C#N)=C(N)Oc3c2sc2nc(C)cc(C)c32)cc1 (stereo not drawn)	25.7%	–	–
CC(C)CN1C(=O)c2ccc(C(=O)Nc3ccncc3)cc2C1=O	-32%	0.461 µM [falling, full curve, poor fit]	11.6 µM [falling, partial curve]
COC(=O)CCc1n[nH]c(=O)[nH]c1=O	-24.3%	0.461 µM [falling, full curve, poor fit]	–
Oc1[nH]c(N=C2N=c3ccccc3=N2)c2ccccc12	56.9%	14.6 µM [falling, single point]	8.2 µM [rising, partial curve, poor fit]
COc1ccc(CCNC(=O)CC(c2ccccc2)c2cc(C)ccc2O)cc1OC (stereo not drawn)	-55.4%	0.13 µM [falling, full curve, poor fit]	20.6 µM [falling, partial curve]
NC1=NC[C@@H](Cc2ccc(O)cc2)N1CCCCC1CCCCC1	-5.81%	0.231 µM [falling, full curve, poor fit]	–
Fc1ccccc1CSc1nc2ncc(Br)cc2[nH]1	–	–	0.00461 µM [falling, full curve, poor fit]
COc1ccccc1/C=N/NC(=O)c1ccc(=O)n(C)c1	-72.7%	4.11 µM [falling, single point]	13 µM [falling, partial curve]
O=C(CCNC(=O)c1ccc(Cl)cc1)Nc1ccccc1N1CCCC1	20.5%	–	–
Cc1c(Cc2ccccc2)c(=O)oc2c(C)c(OC(C)C(=O)NCC3CCC(C(=O)O)CC3)ccc12 (stereo not drawn)	4.21%	18.4 µM [falling, partial curve, poor fit]	–
COc1cccc(C(=O)OCCN2C(=O)c3ccccc3C2=O)c1OC	-38.3%	29.1 µM [falling, single point]	32.6 µM [falling, single point]
CCc1ccc2oc(C(=O)NC3CCS(=O)(=O)C3)cc(=O)c2c1 (stereo not drawn)	4.48%	6.51 µM [falling, single point]	–
CCNC(=O)NC(=O)COc1ccccc1C#N	106%	32.6 µM [rising, single point]	5.8 µM [rising, partial curve]

Record cards, from the list above:
Fc1ccccc1CSc1nc2ncc(Br)cc2[nH]1 in the list: AC50 [2]: 0.00461 µM [falling, full curve, poor fit]
COc1cccc(C(=O)OCCN2C(=O)c3ccccc3C2=O)c1OC in the list: cell number change: -38.3%; AC50 [1]: 29.1 µM [falling, single point]; AC50 [2]: 32.6 µM [falling, single point]
